The values below come from PubChem BioAssay AID2685 (National Center for Advancing Translational Sciences (NCATS), 2010).

This assay is described as follows: qHTS Assay for Lipid Storage Modulators in Drosophila S3 Cells.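 As to cell number change: cells counted by Cell Tracker Red CMTPX staining in the red channel.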 Conditions: BODIPY lipid droplet fluorescence, 18-24 h; for cell number change: measured here: cell count max response, cells fed with added oleic acid. The procedure, abridged:
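Drosophila S3 cells loaded with oleic acid (400 uM, as added) and compounds at several concentrations; lipid droplets imaged by 488-nm laser-scanning cytometry, 500–530 nm intensity and object ratio to cell channel. Percent activity normalized to 20 uM Triacsin C.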
(Quantitative high-throughput screening tests each substance at several concentrations.)

[1] abbreviates: measured here: cell number channel AC50, cells fed with added oleic acid.
[2] abbreviates: measured here: lipid fluorescence (Fed channel) AC50, cells fed with added oleic acid.

Each structure is given as a SMILES string. The list shows a part of the results. The main result of the screen is listed elsewhere. These columns were measured beside it and carry no call. The list favours compounds with an active or inconclusive main result. Potencies come from curve fits of mixed quality, noted in brackets.

In the case of `COc1ccccc1CN(C(=O)c1ccco1)C(C(=O)NC1CCCC1)c1ccncc1` (stereo not drawn), the cell number change turned out to be 6.35%.

The term AC50 denotes the midpoint of the concentration-response curve, whichever way the signal moves. With `CCc1nnc(NC(=O)CCc2ccc(C)o2)s1`, the cell number change came out at 72.1%. Further, the half-maximal activity concentration (AC50) under setting [1] is 13 µM [rising, partial curve].

For the molecule `CCC(C(=O)NC1CCCCC1)n1c(SCc2ccc(F)cc2)nc2ccncc21` (stereo not drawn), the cell number change amounted to 16.9%. For the same molecule, the half-maximal activity concentration (AC50) under setting [2] was 0.13 µM [falling, full curve, poor fit].

Turning to `COc1ccc(N2CCN(c3nc4c(C)cccn4c(=O)c3C=C(C#N)C#N)CC2)cc1`, the cell number change is -22.2%.

Take `CCc1nc(SCC(=O)c2ccc(Cl)s2)c2oc3ccccc3c2n1`: the cell number change was -19.2%.

For `COc1ccc(OCC(O)CNC(C)c2ccccc2)cc1` (stereo not drawn), the cell number change worked out at 13.1%.

Regarding `Cc1ccc(OCCOCCN2CCCCC2)c([N+](=O)[O-])c1`, the cell number change is -1.19%. Under setting [1], the concentration at half-maximal activity (AC50) is 5.17 µM [falling, partial curve]. Moreover, under setting [2], the half-maximal activity concentration (AC50) was 0.0146 µM [falling, full curve, poor fit].

Consider `CCCCOc1ccc(-c2[nH]ncc2C=O)cc1`, for which the cell number change was 5.88%. In addition, the concentration at half-maximal activity (AC50) under setting [1] is 0.82 µM [falling, full curve]. The AC50 under setting [2] is 0.82 µM [falling, full curve].

On to `Cc1ccccc1N1C(=O)N(c2cccc(C(F)(F)F)c2)C2CS(=O)(=O)CC21` (stereo not drawn), for which the cell number change is -0.471%. Further, the concentration at half-maximal activity (AC50) under setting [2] was 0.92 µM [falling, full curve, poor fit].

`CCCCC12CN3CCN(CC(C3)/C1=N\NC(=O)c1ccccc1N)C2`: the cell number change stood at 1.85%. In addition, the AC50 under setting [2] was 6.51 µM [rising, single point].

As to `O=C(NCCc1nnc2ccc(SCC(=O)N3CCCC3)nn12)c1ccccc1`, the cell number change is -12.3%. Under setting [1], the concentration at half-maximal activity (AC50) was 3.66 µM [rising, partial curve].

Consider `COc1cc(NC(=O)CN2C(=O)NC(C)(c3ccccc3)C2=O)c(C)cc1[N+](=O)[O-]` (stereo not drawn), for which the cell number change is -0.435%. Further, the AC50 under setting [2] is 0.651 µM [rising, single point].

On to `Cc1ccc(Nc2nc(N)nc(CN3CCN(C(=O)c4ccco4)CC3)n2)cc1Cl`, for which the cell number change was -32.9%. The concentration at half-maximal activity (AC50) under setting [1] was 5.8 µM [falling, full curve, poor fit].

Regarding `Cc1cccc(Nc2nc(NCCCN3CCOCC3)nc(N)c2[N+](=O)[O-])c1`, the cell number change worked out at 24.1%. The concentration at half-maximal activity (AC50) under setting [2] is 0.103 µM [rising, full curve, poor fit].

For `O=C(OCCc1cc2ccccc2c(=O)o1)c1cccc(Br)c1`, under setting [2], the AC50 was 0.184 µM [falling, full curve].

For the molecule `Cc1c(C)n2c(SCC(=O)N3CCCC3)nnc2[nH]c1=O`, the cell number change was -50.7%. The AC50 under setting [1] was 29.1 µM [falling, single point]. Under setting [2], the half-maximal activity concentration (AC50) was 1.03 µM [falling, full curve].

With `COc1cc(/C=C/c2nc3ccccc3c(=O)[nH]2)cc(Cl)c1O`, the cell number change turned out to be 0.806%. In addition, the AC50 under setting [2] is 0.184 µM [falling, partial curve].

`CCC1c2ccc(C)n2CCN1C(=O)Nc1ccccc1OC` (stereo not drawn): the cell number change was determined as 38.2%. Under setting [1], the AC50 was 23.1 µM [rising, single point].

In the case of `FC(F)C(F)(F)c1cc(-c2ccccc2)n[nH]1`, the cell number change was determined as 3.52%.

Regarding `Cc1ccccc1N1CCN(C2CCCN(C(=O)c3cc(C(C)C)[nH]n3)C2)CC1` (stereo not drawn), the cell number change came to 14.4%. Moreover, the concentration at half-maximal activity (AC50) under setting [1] is 0.058 µM [rising, full curve, poor fit]. Also, under setting [2], the half-maximal activity concentration (AC50) was 29.1 µM [rising, single point].

For `Cc1ccc(OCc2cc(C(=O)NC(C)Cc3cccc(C)n3)no2)cn1` (stereo not drawn), the cell number change came to 4.53%. The half-maximal activity concentration (AC50) under setting [2] was 2.91 µM [rising, single point].

Regarding `CC(C)(C)OC(=O)[C@H](Cc1ccccc1)NC(=O)c1nc[nH]c1C(=O)NC1CCNCC1`, the cell number change is -10%.

In the case of `CC(C)COc1cccc(C(=O)NNC(=O)C2COc3ccccc3O2)c1` (stereo not drawn), under setting [2], the AC50 was 16.4 µM [rising, partial curve].

Turning to `CCCC(=O)NC(=S)Nc1sc2c(c1C(N)=O)CCC2`, the cell number change stood at 31.8%. Further, the AC50 under setting [1] is 5.8 µM [rising, partial curve, poor fit]. Also, the AC50 under setting [2] was 0.58 µM [rising, full curve].

For the molecule `CCCCCCn1c(N2CCN(c3ccccc3)CC2)nc2c1c(=O)[nH]c(=O)n2C`, the cell number change was -30.5%. Further, the half-maximal activity concentration (AC50) under setting [1] is 16.4 µM [falling, single point]. Besides, the AC50 under setting [2] is 29.1 µM [falling, single point].

Turning to `CCN(CC)c1ccc(NC(=O)c2ccc3c(c2)OCO3)cc1`, the cell number change is -34.3%. Further, under setting [1], the AC50 was 20.6 µM [falling, partial curve].

With `Cc1cccc(/N=C/c2c(O)[nH]c3ccccc23)n1`, the cell number change was -41.9%. Moreover, the AC50 under setting [1] was 20.6 µM [falling, single point]. For the same molecule, the AC50 under setting [2] is 18.4 µM [falling, single point].

For the molecule `Cc1cc(C)c(S(=O)(=O)N2CCN(C(=O)C3CCCO3)CC2)c(C)c1` (stereo not drawn), the cell number change is -1.82%. For the same molecule, the concentration at half-maximal activity (AC50) under setting [2] was 29.1 µM [rising, single point].

`COc1cccc2cc(CC(=O)c3ccc(C)cc3C)c(=O)oc12`: the cell number change was -11.3%.

Consider `Cc1ccc(-c2cc(C(=O)O)n[nH]2)o1`, for which the cell number change was -48.7%. The concentration at half-maximal activity (AC50) under setting [1] is 32.6 µM [falling, partial curve, poor fit]. In addition, the AC50 under setting [2] was 29.1 µM [falling, single point].

In the case of `O=C(c1ccco1)N1CCN(C(=O)C2CC(=O)N(c3ccc(Cl)cc3)C2)CC1` (stereo not drawn), the cell number change was 32.8%. Moreover, under setting [1], the AC50 is 0.82 µM [rising, full curve, poor fit].

For the molecule `Cc1cc(NS(=O)(=O)c2ccc(NC(=O)CSc3nnc(-c4ccco4)n3C)cc2)nc(C)n1`, the cell number change is 55.4%. The half-maximal activity concentration (AC50) under setting [1] was 0.116 µM [rising, full curve, poor fit]. The AC50 under setting [2] was 4.61 µM [falling, partial curve, poor fit].

On to `CCOC(=O)/C(=C\c1ccc([N+](=O)[O-])o1)NC(=O)c1ccccc1`, for which the cell number change stood at 6.71%. Moreover, the concentration at half-maximal activity (AC50) under setting [2] is 0.00461 µM [falling, full curve, poor fit].

With `Cc1ccc(OCc2nc(-c3cccs3)no2)c([N+](=O)[O-])c1`, the concentration at half-maximal activity (AC50) under setting [1] is 0.461 µM [rising, single point].

Turning to `Cn1c(=O)[nH]c(=O)c2c1nc(CN1CCN(c3ccc(F)cc3)CC1)n2CCCc1ccccc1`, the cell number change was 2.85%.

For the molecule `CCOC(=O)Cc1csc(NC(=O)c2c(O)c3ccccc3n(C)c2=O)n1`, the cell number change came out at 2.36%.

In the case of `COc1ccc(NC(=O)COC(=O)c2ccc(N3CCCC3=O)cc2)cc1`, the cell number change came to 13.1%.

Take `C=CCn1c(SCc2nc(N)nc(N(C)C)n2)nnc1-c1cccnc1`: the cell number change was -16.2%. Also, the half-maximal activity concentration (AC50) under setting [1] is 2.91 µM [falling, single point].

In the case of `Cc1ccc(CS(=O)(=O)CCC(=O)NCCN(C)Cc2ccccc2)cc1`, the cell number change worked out at 5.68%.
